Results reported in the supplement of paper PMC12067093, “Discovery and optimisation of a covalent ligand for TRIM25 and its application to targeted protein ubiquitination” (Chemical Science, 2025).
The list shows a part of the results.

Amino acid sequences for entries named in this document (tags omitted). A change or cut given only in a name is not applied to a line headed by its entry.
UniProt Q15029: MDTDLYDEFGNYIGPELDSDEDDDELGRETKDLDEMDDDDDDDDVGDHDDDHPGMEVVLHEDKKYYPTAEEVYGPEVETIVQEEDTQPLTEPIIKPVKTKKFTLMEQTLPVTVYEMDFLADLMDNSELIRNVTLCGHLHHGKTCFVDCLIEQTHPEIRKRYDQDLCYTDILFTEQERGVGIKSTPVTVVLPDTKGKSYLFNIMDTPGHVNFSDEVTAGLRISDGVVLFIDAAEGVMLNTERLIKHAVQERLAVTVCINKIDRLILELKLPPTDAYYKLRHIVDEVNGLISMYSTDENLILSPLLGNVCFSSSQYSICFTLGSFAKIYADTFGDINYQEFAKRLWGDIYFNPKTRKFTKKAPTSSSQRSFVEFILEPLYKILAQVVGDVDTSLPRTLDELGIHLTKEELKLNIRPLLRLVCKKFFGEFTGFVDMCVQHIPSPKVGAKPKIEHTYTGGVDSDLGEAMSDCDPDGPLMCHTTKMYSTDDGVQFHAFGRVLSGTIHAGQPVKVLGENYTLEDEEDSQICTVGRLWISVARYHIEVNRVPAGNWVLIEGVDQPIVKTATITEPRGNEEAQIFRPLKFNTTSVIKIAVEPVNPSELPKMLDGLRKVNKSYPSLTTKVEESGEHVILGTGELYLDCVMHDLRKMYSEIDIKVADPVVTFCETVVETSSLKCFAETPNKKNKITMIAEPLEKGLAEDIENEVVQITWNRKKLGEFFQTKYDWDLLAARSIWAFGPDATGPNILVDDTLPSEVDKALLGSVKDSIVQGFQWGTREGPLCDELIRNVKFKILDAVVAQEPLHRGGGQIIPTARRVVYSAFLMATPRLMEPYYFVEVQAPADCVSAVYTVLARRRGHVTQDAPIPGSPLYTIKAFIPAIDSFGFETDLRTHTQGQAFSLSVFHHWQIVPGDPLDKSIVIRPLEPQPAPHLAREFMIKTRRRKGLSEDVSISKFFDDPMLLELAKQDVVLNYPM
UniProt Q92611: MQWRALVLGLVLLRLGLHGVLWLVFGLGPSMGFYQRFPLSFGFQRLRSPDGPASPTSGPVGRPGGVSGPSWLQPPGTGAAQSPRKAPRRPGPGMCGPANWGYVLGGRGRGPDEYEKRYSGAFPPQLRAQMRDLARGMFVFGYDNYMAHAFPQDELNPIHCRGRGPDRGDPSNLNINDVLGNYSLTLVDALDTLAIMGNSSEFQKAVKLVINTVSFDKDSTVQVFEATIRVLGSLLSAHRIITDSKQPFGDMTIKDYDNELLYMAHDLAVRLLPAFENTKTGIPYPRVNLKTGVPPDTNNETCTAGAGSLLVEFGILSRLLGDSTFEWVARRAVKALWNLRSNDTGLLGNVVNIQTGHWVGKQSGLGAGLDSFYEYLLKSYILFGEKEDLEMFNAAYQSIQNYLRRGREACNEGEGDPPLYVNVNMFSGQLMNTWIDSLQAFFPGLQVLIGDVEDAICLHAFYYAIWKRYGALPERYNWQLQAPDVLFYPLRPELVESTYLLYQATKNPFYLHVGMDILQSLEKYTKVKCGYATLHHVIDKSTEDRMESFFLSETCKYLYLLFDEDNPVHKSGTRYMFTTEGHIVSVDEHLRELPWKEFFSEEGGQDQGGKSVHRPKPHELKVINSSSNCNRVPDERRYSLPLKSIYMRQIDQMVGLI
UniProt Q3B7T1: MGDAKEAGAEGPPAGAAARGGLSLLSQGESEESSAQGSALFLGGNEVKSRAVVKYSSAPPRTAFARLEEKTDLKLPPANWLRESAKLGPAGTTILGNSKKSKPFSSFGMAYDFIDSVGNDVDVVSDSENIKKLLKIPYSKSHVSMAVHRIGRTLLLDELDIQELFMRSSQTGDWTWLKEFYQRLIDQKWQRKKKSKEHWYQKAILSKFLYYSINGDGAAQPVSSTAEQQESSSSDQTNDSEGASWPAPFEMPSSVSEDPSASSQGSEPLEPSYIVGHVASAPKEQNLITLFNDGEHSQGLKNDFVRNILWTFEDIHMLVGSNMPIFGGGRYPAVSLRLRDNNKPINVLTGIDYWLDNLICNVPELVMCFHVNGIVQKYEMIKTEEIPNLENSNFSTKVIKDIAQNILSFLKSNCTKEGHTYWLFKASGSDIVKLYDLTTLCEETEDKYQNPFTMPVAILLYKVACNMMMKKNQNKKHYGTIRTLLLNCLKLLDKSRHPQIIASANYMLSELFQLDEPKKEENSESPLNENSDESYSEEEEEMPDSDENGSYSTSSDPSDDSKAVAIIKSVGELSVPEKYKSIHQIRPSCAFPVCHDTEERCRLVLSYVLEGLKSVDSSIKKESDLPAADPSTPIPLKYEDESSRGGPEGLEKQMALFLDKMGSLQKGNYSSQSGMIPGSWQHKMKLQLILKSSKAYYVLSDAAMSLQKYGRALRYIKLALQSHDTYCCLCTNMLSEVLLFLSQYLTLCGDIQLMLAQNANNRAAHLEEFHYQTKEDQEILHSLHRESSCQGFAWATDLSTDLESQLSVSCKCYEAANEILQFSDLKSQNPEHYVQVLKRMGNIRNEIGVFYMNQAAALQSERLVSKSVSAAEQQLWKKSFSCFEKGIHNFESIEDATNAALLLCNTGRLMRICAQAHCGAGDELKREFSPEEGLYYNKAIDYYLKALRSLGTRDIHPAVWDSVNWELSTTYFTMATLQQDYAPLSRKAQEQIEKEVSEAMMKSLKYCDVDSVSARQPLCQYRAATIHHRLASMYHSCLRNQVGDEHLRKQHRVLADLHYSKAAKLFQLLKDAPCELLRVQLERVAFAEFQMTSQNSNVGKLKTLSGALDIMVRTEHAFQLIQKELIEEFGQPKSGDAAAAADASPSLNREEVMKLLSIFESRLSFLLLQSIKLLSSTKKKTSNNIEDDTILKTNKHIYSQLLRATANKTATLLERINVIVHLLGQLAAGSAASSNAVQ
UniProt Q96F86: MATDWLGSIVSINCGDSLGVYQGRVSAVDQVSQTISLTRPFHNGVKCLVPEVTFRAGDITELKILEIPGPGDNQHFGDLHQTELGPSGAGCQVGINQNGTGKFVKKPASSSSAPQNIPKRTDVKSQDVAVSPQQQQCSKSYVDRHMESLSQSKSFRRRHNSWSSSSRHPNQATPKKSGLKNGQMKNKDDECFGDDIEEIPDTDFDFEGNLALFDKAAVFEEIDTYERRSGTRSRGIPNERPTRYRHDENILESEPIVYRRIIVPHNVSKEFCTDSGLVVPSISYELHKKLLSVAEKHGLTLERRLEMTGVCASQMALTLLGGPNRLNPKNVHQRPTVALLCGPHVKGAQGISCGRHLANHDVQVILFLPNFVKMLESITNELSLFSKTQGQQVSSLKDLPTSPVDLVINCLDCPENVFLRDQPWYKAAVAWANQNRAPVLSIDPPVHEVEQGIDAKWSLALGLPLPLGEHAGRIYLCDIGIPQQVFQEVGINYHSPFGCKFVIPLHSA
UniProt Q9H9B1: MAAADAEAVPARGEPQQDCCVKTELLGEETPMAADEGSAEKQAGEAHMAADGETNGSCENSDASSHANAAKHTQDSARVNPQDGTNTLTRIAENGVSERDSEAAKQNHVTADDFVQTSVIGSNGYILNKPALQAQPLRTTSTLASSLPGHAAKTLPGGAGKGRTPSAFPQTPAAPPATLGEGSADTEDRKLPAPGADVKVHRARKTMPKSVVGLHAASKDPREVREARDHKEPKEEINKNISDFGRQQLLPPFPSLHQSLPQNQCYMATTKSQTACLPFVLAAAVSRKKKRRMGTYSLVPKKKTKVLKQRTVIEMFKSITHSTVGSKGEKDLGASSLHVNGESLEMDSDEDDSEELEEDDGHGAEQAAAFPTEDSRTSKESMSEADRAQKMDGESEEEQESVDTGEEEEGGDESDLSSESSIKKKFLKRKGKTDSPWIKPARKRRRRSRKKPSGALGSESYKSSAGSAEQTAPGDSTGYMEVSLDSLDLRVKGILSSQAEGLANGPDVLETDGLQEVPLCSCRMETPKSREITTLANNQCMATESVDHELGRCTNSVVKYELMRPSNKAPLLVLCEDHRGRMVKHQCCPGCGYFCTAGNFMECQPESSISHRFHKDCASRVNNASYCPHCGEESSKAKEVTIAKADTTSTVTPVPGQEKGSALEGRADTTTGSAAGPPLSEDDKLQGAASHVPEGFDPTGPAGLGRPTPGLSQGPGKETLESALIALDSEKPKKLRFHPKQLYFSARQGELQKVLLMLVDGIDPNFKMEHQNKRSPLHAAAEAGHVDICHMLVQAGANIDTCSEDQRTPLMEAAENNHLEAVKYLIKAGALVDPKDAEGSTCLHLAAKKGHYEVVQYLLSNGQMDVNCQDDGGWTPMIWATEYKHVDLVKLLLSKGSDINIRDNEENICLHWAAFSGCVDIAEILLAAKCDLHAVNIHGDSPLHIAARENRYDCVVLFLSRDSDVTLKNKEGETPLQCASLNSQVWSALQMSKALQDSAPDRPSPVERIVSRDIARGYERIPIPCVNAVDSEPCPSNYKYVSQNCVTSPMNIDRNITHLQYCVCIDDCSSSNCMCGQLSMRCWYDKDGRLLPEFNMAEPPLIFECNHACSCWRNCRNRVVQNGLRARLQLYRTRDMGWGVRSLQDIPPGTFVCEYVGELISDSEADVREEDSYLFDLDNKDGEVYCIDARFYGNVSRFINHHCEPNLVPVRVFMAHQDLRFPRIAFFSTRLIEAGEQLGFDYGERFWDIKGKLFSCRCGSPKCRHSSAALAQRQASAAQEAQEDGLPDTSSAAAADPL
UniProt P68104, whole entry, looked up: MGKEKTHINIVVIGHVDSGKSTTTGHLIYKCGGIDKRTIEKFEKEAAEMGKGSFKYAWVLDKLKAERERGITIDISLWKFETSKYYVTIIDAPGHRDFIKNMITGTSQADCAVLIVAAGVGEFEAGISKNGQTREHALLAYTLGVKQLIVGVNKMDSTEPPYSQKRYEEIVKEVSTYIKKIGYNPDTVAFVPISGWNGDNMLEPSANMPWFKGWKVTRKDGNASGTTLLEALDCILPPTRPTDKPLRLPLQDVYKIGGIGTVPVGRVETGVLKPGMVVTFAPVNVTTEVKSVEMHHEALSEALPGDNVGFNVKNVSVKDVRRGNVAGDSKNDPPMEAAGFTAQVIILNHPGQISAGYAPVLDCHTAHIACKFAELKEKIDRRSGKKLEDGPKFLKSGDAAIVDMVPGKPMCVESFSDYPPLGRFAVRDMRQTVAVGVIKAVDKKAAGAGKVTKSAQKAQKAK
UniProt Q7Z2Z2: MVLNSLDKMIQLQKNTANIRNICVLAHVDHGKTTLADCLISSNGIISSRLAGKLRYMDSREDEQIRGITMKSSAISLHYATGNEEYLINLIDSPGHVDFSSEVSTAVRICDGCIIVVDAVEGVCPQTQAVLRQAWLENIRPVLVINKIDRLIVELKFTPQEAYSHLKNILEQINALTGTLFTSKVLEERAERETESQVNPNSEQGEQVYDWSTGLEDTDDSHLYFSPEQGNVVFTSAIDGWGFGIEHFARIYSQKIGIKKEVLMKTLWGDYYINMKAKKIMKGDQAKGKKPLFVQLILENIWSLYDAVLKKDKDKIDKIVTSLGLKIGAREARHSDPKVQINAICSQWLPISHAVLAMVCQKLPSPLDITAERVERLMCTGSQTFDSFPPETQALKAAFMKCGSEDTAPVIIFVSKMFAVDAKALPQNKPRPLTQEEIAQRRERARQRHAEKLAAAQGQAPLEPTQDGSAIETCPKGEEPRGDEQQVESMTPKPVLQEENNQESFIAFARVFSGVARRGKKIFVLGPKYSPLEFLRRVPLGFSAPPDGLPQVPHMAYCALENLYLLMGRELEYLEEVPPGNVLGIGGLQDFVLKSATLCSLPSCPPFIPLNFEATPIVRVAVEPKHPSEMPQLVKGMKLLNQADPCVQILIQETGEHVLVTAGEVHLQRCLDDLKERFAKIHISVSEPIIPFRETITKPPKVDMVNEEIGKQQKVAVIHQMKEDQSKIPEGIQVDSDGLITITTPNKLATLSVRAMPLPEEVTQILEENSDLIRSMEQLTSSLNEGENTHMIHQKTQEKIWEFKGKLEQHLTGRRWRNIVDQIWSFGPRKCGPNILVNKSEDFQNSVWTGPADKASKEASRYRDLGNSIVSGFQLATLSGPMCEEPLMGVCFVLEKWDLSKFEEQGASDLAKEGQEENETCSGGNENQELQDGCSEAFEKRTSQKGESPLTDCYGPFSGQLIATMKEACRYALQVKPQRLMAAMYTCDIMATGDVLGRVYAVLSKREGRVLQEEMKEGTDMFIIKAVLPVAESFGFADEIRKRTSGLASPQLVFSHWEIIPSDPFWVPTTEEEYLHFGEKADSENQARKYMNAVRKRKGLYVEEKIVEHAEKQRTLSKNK
UniProt P05198, whole entry, looked up: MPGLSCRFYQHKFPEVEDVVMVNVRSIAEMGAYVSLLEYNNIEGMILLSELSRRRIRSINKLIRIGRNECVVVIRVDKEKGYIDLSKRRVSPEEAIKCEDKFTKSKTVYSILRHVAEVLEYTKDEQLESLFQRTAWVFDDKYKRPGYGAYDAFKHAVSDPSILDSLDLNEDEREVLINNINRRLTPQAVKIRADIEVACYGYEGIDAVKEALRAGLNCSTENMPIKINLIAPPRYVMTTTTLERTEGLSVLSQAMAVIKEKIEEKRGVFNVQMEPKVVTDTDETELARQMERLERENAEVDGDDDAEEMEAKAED

Compound: CC1Cc2ccccc2N1C(=O)C1CCCN(C1)C(=O)CCl (mixture of isomers) [TRIM25 ligand 11 (diastereomer mixture)]
Assay: probe-labelled cysteine peptide fold change vs DMSO (competition) (log2 fold change); higher = less target engagement (more negative = stronger competition)
Details: THP-1, incubation time: 4 h
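Note: competitive chemoproteomic profiling in live THP-1 cells with an iodoacetamide desthiobiotin (IA-DTB) probe, comparing probe-labelled peptide intensities in compound-treated cells against DMSO-treated controls.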

| Target | probe-labelled cysteine peptide fold change (10 µM) | probe-labelled cysteine peptide fold change (50 µM) |
| --- | --- | --- |
| EEF2_P13639_290_TFCQLILDPIFK (UniProt P13639) | -0.105 | -0.104 |
| EFTUD2_Q15029_166_YDQDLCYTDILFTEQER (UniProt Q15029) | -0.0633 | -0.262 |
| EDEM1_Q92611_529_CGYATLHHVIDK (UniProt Q92611) | 0.0724 | 0.192 |
| EDRF1_Q3B7T1_1074_DAPCELLR (UniProt Q3B7T1) | 0.126 | 0.31 |
| EIF1_P41567_94_KNICQFLVEIGLAK (UniProt P41567) | -0.379 | -0.165 |
| EDC3_Q96F86_311_RLEMTGVCASQMALTLLGGPNR (UniProt Q96F86) | -0.0187 | 0.0828 |
| EIF2S3_P41091_96_LDDPSCPRPECYR (UniProt P41091) | 0.0208 | -0.0476 |
| EHMT1_Q9H9B1_1111_LLPEFNMAEPPLIFECNHACSCWR (UniProt Q9H9B1) | 0.206 | -0.44 |
| EHD4_Q9H223_141_FMCSQLPNQVLK (UniProt Q9H223) | -0.048 | -0.00282 |
| EDC3_Q96F86_272_EFCTDSGLVVPSISYELHK (UniProt Q96F86) | -0.126 | 0.00328 |
| EIF3A_Q14152_198_LCDNLR (UniProt Q14152) | 0.0878 | 0.126 |
| EEF1A1_P68104_411_PMCVESFSDYPPLGR (UniProt P68104) | 0.0668 | 0.0149 |
| EFL1_Q7Z2Z2_23_NICVLAHVDHGK (UniProt Q7Z2Z2) | 0.0489 | -0.0842 |
| EDEM1_Q92611_160_GMFVFGYDNYMAHAFPQDELNPIHCR (UniProt Q92611) | 0.121 | -0.0252 |
| ECPAS_Q5VYK3_1459_TSCALTIHAIGR (UniProt Q5VYK3) | -0.0778 | -0.0124 |
| EDEM1_Q92611_95_RPGPGMCGPANWGYVLGGR (UniProt Q92611) | -0.117 | -0.186 |
| EIF2S1_P05198_199_ADIEVACYGYEGIDAVK (UniProt P05198) | -0.011 | -0.087 |
| EDC3_Q96F86_311_LEMTGVCASQMALTLLGGPNR (UniProt Q96F86) | -0.36 | -0.14 |
| EFTUD2_Q15029_166_RYDQDLCYTDILFTEQER (UniProt Q15029) | -0.108 | -0.0699 |

As entered above.
probe-labelled cysteine peptide fold change (10 µM), EDC3_Q96F86_311_LEMTGVCASQMALTLLGGPNR (UniProt Q96F86) is entered as -0.36
probe-labelled cysteine peptide fold change (50 µM), EDC3_Q96F86_311_RLEMTGVCASQMALTLLGGPNR (UniProt Q96F86) is entered as 0.0828
